In patent publication EP4722249A1 (AIMED BIO INC., dated 2026):
Results are given in words; binding and its absence hold for the method and conditions named. Some results given as binding are weak or reduced against the parent protein; the word gives no strength.

Tests used:
[1] = biological target: T1, human CD200R1 on cells (HH, Jurkat-CD200R1, U937-CD200R1) (human) (UniProt Q8TD46); assay: flow cytometry on CD200R1-expressing cells
T1 sequence (looked up): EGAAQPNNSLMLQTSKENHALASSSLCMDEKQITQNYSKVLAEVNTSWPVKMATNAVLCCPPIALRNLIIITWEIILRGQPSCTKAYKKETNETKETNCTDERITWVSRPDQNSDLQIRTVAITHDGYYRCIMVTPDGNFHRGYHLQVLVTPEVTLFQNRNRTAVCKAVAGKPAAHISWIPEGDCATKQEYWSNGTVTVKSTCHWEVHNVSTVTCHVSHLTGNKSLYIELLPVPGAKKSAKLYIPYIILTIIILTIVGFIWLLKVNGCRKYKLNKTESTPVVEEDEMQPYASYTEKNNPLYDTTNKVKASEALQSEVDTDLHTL

[2] = biological target: T2, human CD200R1 recombinant protein (human) (UniProt Q8TD46); assay: ELISA
T2 sequence (looked up): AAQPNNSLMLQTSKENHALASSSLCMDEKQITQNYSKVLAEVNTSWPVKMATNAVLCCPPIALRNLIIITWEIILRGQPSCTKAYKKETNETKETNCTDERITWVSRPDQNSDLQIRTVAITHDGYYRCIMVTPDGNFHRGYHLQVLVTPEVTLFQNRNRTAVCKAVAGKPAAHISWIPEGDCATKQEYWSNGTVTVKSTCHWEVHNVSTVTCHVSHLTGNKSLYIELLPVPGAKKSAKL

[3] = biological target: T1, human CD200R1 on cells (HH, Jurkat-CD200R1, U937-CD200R1) (human); assay: cell binding assay (FACS), HH cells
[4] = biological target: T2, human CD200R1 recombinant protein (human); assay: antigen binding assay (ELISA) on human CD200R1
[5] = biological target: T2, human CD200R1 recombinant protein (human); assay: ELISA on human CD200R1 recombinant protein
[6] = biological target: T1, human CD200R1 on cells (HH, Jurkat-CD200R1, U937-CD200R1) (human); assay: flow cytometry, IgG1 form at 500 nM, HH and Jurkat-CD200R1 cells
[7] = biological target: T1, human CD200R1 on cells (HH, Jurkat-CD200R1, U937-CD200R1) (human); assay: flow cytometry, IgG4 and LALAPG forms, HH and Jurkat-CD200R1 cells

B1: P001009v1 (antibody, V domains shown)
VH: EVQLLESGGGLVQPGGSLRLSCAASGFTFSSYDMSWVRQAPGKGLEWVSWISHGGGSIYYADSVKGRFTISRDNSKNTLYLQMNSLRAEDTAVYYCARDAPAYSAPLFDYWGQGTLVTVSS
VL: QSVLTQPPSASGTPGQRVTISCSGSSSNIGNNAVNWYQQLPGTAPKLLIYYDKNRPSGVPDRFSGSKSGTSASLAISGLRSEDEADYYCAAWDDRLSGYVFGGGTKLTVL
binding [1]: binds
binding [2]: binds

B2: P001009v2 (antibody, V domains shown)
VH: EVQLLESGGGLVQPGGSLRLSCAASGFTFSSYDMSWVRQAPGKGLEWVSWISHGGGSIYYADSVKGRFTISRDNSKNTLYLQMNSLRAEDTAVYYCARDAPAYSAPLFDYWGQGTLVTVSS
VL: QSVLTQPPSASGTPGQRVTISCSGSSSNIGNNAVNWYQQLPGTAPKLLIYYDKNRPSGVPDRFSGSKSGTSASLAISGLRSEDEADYYCAAWDRSLSGYVFGGGTKLTVL
binding [1]: binds
binding [2]: binds

B3: H3-Y102K scFv (scFv)
scFv: QVQLVQSGAEVKKPGASVKVSCKASGYTFTSYVMHWVRQAPGQGLEWMGYINPYNDDTNYNEKFKGRVTMTRDTSTSTVYMELSSLRSEDTAVYYCAREDYYGSRWGKWGQGTLVTVSSGGGGSGGGGSGGGGSDIVLTQSPASLAVSPGQRATITCRASKSVSTSGYSYMHWYQQKPGQPPKLLIYLASNLESGVPARFSGSGSGTDFTLTINPVEANDTANYYCQHSRELLTFGQGTKVEIK
binding [3]: binds
binding [4]: binds

B4: H3-Y102T scFv (scFv)
scFv: QVQLVQSGAEVKKPGASVKVSCKASGYTFTSYVMHWVRQAPGQGLEWMGYINPYNDDTNYNEKFKGRVTMTRDTSTSTVYMELSSLRSEDTAVYYCAREDYYGSRWGTWGQGTLVTVSSGGGGSGGGGSGGGGSDIVLTQSPASLAVSPGQRATITCRASKSVSTSGYSYMHWYQQKPGQPPKLLIYLASNLESGVPARFSGSGSGTDFTLTINPVEANDTANYYCQHSRELLTFGQGTKVEIK
binding [3]: binds
binding [4]: binds

B5: P001018v1 (antibody, V domains shown)
VH: QVQLVQSGAEVKKPGASVKVSCKASGYTFTSYVMHWVRQAPGQGLEWMGYINPYNDDTNYNEKFKGRVTMTRDTSTSTVYMELSSLRSEDTAVYYCAREDYYGSRWGKWGQGTLVTVSS
VL: DIVLTQSPASLAVSPGQRATITCRASKSVSTSGYSYMHWYQQKPGQPPKLLIYLASNLESGVPARFSGSGSGTDFTLTINPVEANDTANYYCQHSRELLTFGQGTKVEIK
binding [5]: binds

B6: P001018v6 (antibody, V domains shown)
VH: QVQLVQSGAEVKKPGASVKVSCKASGYTFTSYVMHWVRQAPGQGLEWMGYINPYNDDTNYNEKFKGRVTMTRDTSTSTVYMELSSLRSEDTAVYYCAREDYYGSRWGTWGQGTLVTVSS
VL: DIVLTQSPASLAVSPGQRATITCRASKSVSTSGYSYMHWYQQKPGQPPKLLIYLASNLESGVPARFSGSGSGTDFTLTINPVEANDTANYYCQHSRELLTFGQGTKVEIK
binding [5]: binds

B7: P001018v26 (antibody, V domains shown)
VH: QVQLVQSGAEVKKPGASVKVSCKASGYTFTSYVMHWVRQAPGQGLEWMGYINPYNDDTNYNEKFKGRVTMTRDTSTSTVYMELSSLRSEDTAVYYCAREDYYGSRWGTWGQGTLVTVSS
VL: DIVLTQSPASLAVSPGQRATITCRASKSVSTSGYSYMHWYQQKPGQPPKLLIYLASNLESGVPARFSGSGSGTDFTLTINPVEANDTANYYCQHSHELLTFGQGTKVEIK
binding [5]: binds

B8: P001018v36 (antibody, V domains shown)
VH: QVQLVQSGAEVKKPGASVKVSCKASGYTFTSYVMHWVRQAPGQGLEWMGYINPYNDDTNYNEKFKGRVTMTRDTSTSTVYMELSSLRSEDTAVYYCAREDYYGSRWGTWGQGTLVTVSS
VL: DIVLTQSPASLAVSPGQRATITCRASKSVSTSGYSYMHWYQQKPGQPPKLLIYLASNLESGVPARFSGSGSGTDFTLTINPVEANDTANYYCQHSRELDTFGQGTKVEIK
binding [5]: binds

B9: P001018v236 (antibody, V domains shown)
VH: QVQLVQSGAEVKKPGASVKVSCKASGYTFTSYVMHWVRQAPGQGLEWMGYINPYNDDTNYNEKFKGRVTMTRDTSTSTVYMELSSLRSEDTAVYYCAREDYYGSRWGTWGQGTLVTVSS
VL: DIVLTQSPASLAVSPGQRATITCRASKSVSTSGYSYMHWYQQKPGQPPKLLIYLASNLESGVPARFSGSGSGTDFTLTINPVEANDTANYYCQHSHELDTFGQGTKVEIK
binding [5]: binds

B10: P001018v2356 (antibody, V domains shown)
VH: QVQLVQSGAEVKKPGASVKVSCKASGYTFTSYVMHWVRQAPGQGLEWMGYINPYNDDTNYNEKFKGRVTMTRDTSTSTVYMELSSLRSEDTAVYYCAREDYYGSRWGTWGQGTLVTVSS
VL: DIVLTQSPASLAVSPGQRATITCRASKSVSTSGYSYMHWYQQKPGQPPKLLIYLASNLESGVPARFSGSGSGTDFTLTINPVEANDTANYYCQHSHELDRFGQGTKVEIK
binding [5]: binds

B11: ch1F1 (antibody, V domains shown)
VH: QVQLQQPGAEFVKPGAPVKLSCKASGYTFTSYWMNWVKQRPGRGLEWIGRIDPADSEIHYNQKFKDKATLTVDKSSSTAYIQFSSLTSEDSAVYYCARSGGWLPGFAYWGQGTLVTVSA
VL: ENVLTQSPAIMSASPGEKVTMTCSASSSLIYMHWYQQKSSTSPKLWIYDTSKLASGVPGRFSGSGSGNSYSLTINSMEAEDVATYYCFQGSGYPLMYTFGGGTKLEIK
binding [6]: binds

B12: ch6C3 (antibody, V domains shown)
VH: QVQLQQPGAELVRPGASVKLSCKASAYTFTSYWMNWVKQRPEQGLEWIGRIDPYDSETHYNQKFKDKAILTVDKSSSTAYMQLSSLTSEDSAVYYCARVDGNHLFDYWGQGTTLTVSS
VL: DIKMTQSPSSMYASLGERVTITCKASQDINSYLSWFQQKPGKSPKTLIYRANRLVDGVPSRFSGSGSGQDYSLTISSLEYEDMGIYYCLQYDEFPYTFGGGTKLEIK
binding [6]: binds

B13: P001006 (antibody, V domains shown)
VH: EVQLLESGGGLVQPGGSLRLSCAASGFTFSDYAMSWVRQAPGKGLEWVSGISYGNGNTYYADSVKGRFTISRDNSKNTLYLQMNSLRAEDTAVYYCAKDPWQTAINDFDYWGQGTLVTVSS
VL: QSVLTQPPSASGTPGQRVTISCTGSSSNIGNNSVNWYQQLPGTAPKLLIYTNSHRPSEVPDRFSGSKSGTSASLAISGLRSEDEADYYCGTWDSSLSGYVFGGGTKLTVL
binding [7]: binds

B14: P001008 (antibody, V domains shown)
VH: EVQLLESGGGLVQPGGSLRLSCAASGFTFSSYDMSWVRQAPGKGLEWVSWISHGGGSIYYADSVKGRFTISRDNSKNTLYLQMNSLRAEDTAVYYCARDAPALMHSLFDYWGQGTLVTVSS
VL: QSVLTQPPSASGTPGQRVTISCSGSSSNIGSNHVNWYQQLPGTAPKLLIYYDSQRPSGVPDRFSGSKSGTSASLAISGLRSEDEADYYCGSWDASLNGYVFGGGTKLTVL
binding [7]: binds
